This is an account of results in article PMC7556057.

Sequences of proteins named here, by UniProt entry; tags and fusion partners are left off.
UniProt P21796: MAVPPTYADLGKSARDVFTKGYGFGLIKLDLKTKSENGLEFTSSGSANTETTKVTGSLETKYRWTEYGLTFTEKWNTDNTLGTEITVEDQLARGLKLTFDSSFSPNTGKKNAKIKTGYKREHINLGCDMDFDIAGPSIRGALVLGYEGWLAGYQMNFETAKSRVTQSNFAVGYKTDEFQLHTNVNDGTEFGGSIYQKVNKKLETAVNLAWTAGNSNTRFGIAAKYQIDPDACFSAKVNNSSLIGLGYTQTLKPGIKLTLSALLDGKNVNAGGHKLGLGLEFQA

For the assay, the target named is T1, tubulin polymerization-promoting protein family member 3 (TPPP3), FLAG-tagged (UniProt Q9BW30).
T1 sequence: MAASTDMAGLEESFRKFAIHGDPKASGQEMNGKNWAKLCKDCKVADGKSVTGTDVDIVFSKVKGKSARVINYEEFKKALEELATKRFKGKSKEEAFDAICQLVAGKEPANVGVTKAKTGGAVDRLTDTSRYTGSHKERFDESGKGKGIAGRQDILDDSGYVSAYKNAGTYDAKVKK
Briefly: affinity purification with mass spectrometry; Co-IP from HUVECs transduced with vector or TPPP3; pelleted Co-IPs analysed by LC-MS/MS.

These are yes or no findings as the source states them, for the method shown. Binding seen in cells or lysates may run through a third protein. A yes stands for co-enrichment or nearness to the bait. Other partners may have been found. Tags and fused reporters may be left off the sequences shown.

“voltage-dependent anion channel 1 (VDAC1), endogenous (from UniProt P21796 1-283)”: the binding result is listed as “binds”.
